Among the data in publication PMC9176654 are binding values, retold here.

Results are given in words; binding and its absence hold for the method and conditions named. In cells and extracts the contact can be indirect. A yes stands for co-enrichment or nearness to the bait. Other partners may have been found.

This test deals with NSP13 (SARS-CoV-2) (UniProt P0DTD1). Put plainly: two-hybrid + affinity purification with mass spectrometry.

Consider PDE4DIP (from UniProt Q5VU43 1-2346), for which the binding result is given as “binds”.
